Results as given in PMC7377239, “Cardiovascular Effects of Polychlorinated Biphenyls and Their Major Metabolites” (Environmental Health Perspectives, 2020).

Tested on: iPSC-CMs, iPSC-ECs and HUVECs phenotypes
Test: ToxPi 2.0 integration of POD values and physicochemical descriptors
Design: species or system human
Conditions: for huvec.mtl.18hr ToxPi / huvec.tlps.18hr ToxPi / huvec.tta.18hr ToxPi / huvec.ttl.18hr ToxPi / huvec.cyto.24hr ToxPi / huvec.mito.24hr ToxPi / huvec.mitoint.24hr ToxPi / huvec.nma.24hr ToxPi / huvec.tc.24hrs ToxPi: HUVECs; for huvec.mtl.18hr ToxPi / huvec.tlps.18hr ToxPi / huvec.tta.18hr ToxPi / huvec.ttl.18hr ToxPi / huvec.cyto.24hr ToxPi / huvec.mito.24hr ToxPi / huvec.mitoint.24hr ToxPi / huvec.nma.24hr ToxPi / huvec.tc.24hrs ToxPi / endo.mtl.18hr ToxPi / endo.tlps.18hr ToxPi / endo.tta.18hr ToxPi / endo.ttl.18hr ToxPi / endo.cyto.24hr ToxPi / endo.mito.24hr ToxPi / endo.mitoint.24hr ToxPi / endo.nma.24hr ToxPi / endo.tc.24hrs ToxPi: scaled from POD; for cm.amp.avg.24hrs ToxPi / cm.amp.avg.90min ToxPi / cm.amp.cv.24hrs ToxPi / cm.amp.cv.90min ToxPi / cm.bpm.24hrs ToxPi / cm.bpm.90min ToxPi / cm.cam.24hrs ToxPi / cm.cam.90min ToxPi / cm.decay.rise.24hrs ToxPi / cm.decay.rise.90min ToxPi / cm.mii.24hrs ToxPi / cm.mii.90min ToxPi / cm.mito.24hrs ToxPi / cm.mito.90min ToxPi / cm.spacing.cv.24hrs ToxPi / cm.spacing.cv.90min ToxPi / cm.tc.24hrs ToxPi / cm.tc.90min ToxPi: iPSC-CM; for endo.mtl.18hr ToxPi / endo.tlps.18hr ToxPi / endo.tta.18hr ToxPi / endo.ttl.18hr ToxPi: iPSC-EC tube formation; for endo.cyto.24hr ToxPi / endo.mito.24hr ToxPi / endo.mitoint.24hr ToxPi / endo.nma.24hr ToxPi / endo.tc.24hrs ToxPi: iPSC-EC; for ToxPi_Score_Bioactivity: Biological Activity ToxPi, POD values of iPSC-CM, iPSC-EC and HUVEC phenotypes integrated; for ToxPi_Score_ChemBiol: Chemical-Biological Integration ToxPi, in vitro data plus physicochemical descriptors
Source text: Phenotypic responses were quantitatively assessed using concentration–response modeling as detailed elsewhere ([Sirenko et al. 2017]). Briefly, phenotypic readouts were normalized to vehicle controls and fit to a four-parameter logistic model in R studio software (version 3.1.1; R Development Core Team). Following EPA guidance on dose–response modeling, a cutoff of one standard deviation across means of vehicle control (i.e., 0.5% vol/vol DMSO in cell culture media) wells was applied to determine the point-of-departure (POD) values ([U.S. EPA 2012]). In the absence of a concentration–response, the highest tested concentration (i.e., 100μM ) was assigned as “no observable adverse effect level.” The concentration–response assessment R script, as well as templates for vehicle and concentration–response data, are available as a supplement to Sirenko et al. ([2017]). The ability of physicochemical properties to predict differences in PODs were evaluated by multiregression and mixed-effects modeling using R.
POD values were then integrated using ToxPi 2.0 ([Marvel et al. 2018]) software. In ToxPi, each slice is representative of cell type– and time-point–specific phenotypes. The area of each slice is proportional to the relative value (e.g., bioactivity or physicochemical descriptor value) of the chemical within the data set. ToxPi scores were used to rank PCBs and their metabolites according to their overall bioactivity and to determine variability in total observable biological responses and chemical characteristics for each major metabolite class and chlorination status (mono-, hexa-chlorinated). Additional visualizations such as dumbbell and principal components analysis plots were generated in R Studio (version 1.1.456; R version 3.5.1; R Development Core Team) using the ggplot2 package.

Oc1ccc(O)c(-c2ccc(Cl)cc2)c1 [2',5'-DiOH PCB3]
huvec.mtl.18hr ToxPi: 0.98
huvec.tlps.18hr ToxPi: 0.79
huvec.tta.18hr ToxPi: 0.85
huvec.ttl.18hr ToxPi: 0.66
huvec.cyto.24hr ToxPi: 0.70
huvec.mito.24hr ToxPi: 0.79
huvec.mitoint.24hr ToxPi: 0.66
huvec.nma.24hr ToxPi: 0.31
huvec.tc.24hrs ToxPi: 0.70
cm.amp.avg.24hrs ToxPi: 0.41
cm.amp.avg.90min ToxPi: 0.26
cm.amp.cv.24hrs ToxPi: 0.76
cm.amp.cv.90min ToxPi: 0.59
cm.bpm.24hrs ToxPi: 0.73
cm.bpm.90min ToxPi: 0.18
cm.cam.24hrs ToxPi: 0.54
cm.cam.90min ToxPi: 0.46
cm.decay.rise.24hrs ToxPi: 0.93
cm.decay.rise.90min ToxPi: 0.23
cm.mii.24hrs ToxPi: 1.00
cm.mii.90min ToxPi: 0.95
cm.mito.24hrs ToxPi: 1.00
cm.mito.90min ToxPi: 0.84
cm.spacing.cv.24hrs ToxPi: 1.00
cm.spacing.cv.90min ToxPi: 0.35
cm.tc.24hrs ToxPi: 0.91
cm.tc.90min ToxPi: 0.45
endo.mtl.18hr ToxPi: 0.56
endo.tlps.18hr ToxPi: 0.84
endo.tta.18hr ToxPi: 0.37
endo.ttl.18hr ToxPi: 0.39
endo.cyto.24hr ToxPi: 0.47
endo.mito.24hr ToxPi: 0.47
endo.mitoint.24hr ToxPi: 0.11
endo.nma.24hr ToxPi: 0.35
endo.tc.24hrs ToxPi: 0.50

Oc1ccc(O)c(-c2ccc(Cl)cc2)c1 [2',5'-diOH-PCB 3, 4-Chloro-2′,5′-dihydroxybiphenyl]
ToxPi_Score_Bioactivity: 0.7927
ToxPi_Score_ChemBiol: 0.6753

Oc1ccccc1-c1ccc(Cl)cc1 [2'-OH PCB3]
huvec.mtl.18hr ToxPi: 0.00
huvec.tlps.18hr ToxPi: 0.98
huvec.tta.18hr ToxPi: 0.00
huvec.ttl.18hr ToxPi: 0.00
huvec.cyto.24hr ToxPi: 0.31
huvec.mito.24hr ToxPi: 0.38
huvec.mitoint.24hr ToxPi: 0.21
huvec.nma.24hr ToxPi: 0.53
huvec.tc.24hrs ToxPi: 0.31
cm.amp.avg.24hrs ToxPi: 0.24
cm.amp.avg.90min ToxPi: 1.00
cm.amp.cv.24hrs ToxPi: 0.06
cm.amp.cv.90min ToxPi: 1.00
cm.bpm.24hrs ToxPi: 0.17
cm.bpm.90min ToxPi: 0.60
cm.cam.24hrs ToxPi: 0.12
cm.cam.90min ToxPi: 0.46
cm.decay.rise.24hrs ToxPi: 0.67
cm.decay.rise.90min ToxPi: 0.97
cm.mii.24hrs ToxPi: 0.72
cm.mii.90min ToxPi: 0.89
cm.mito.24hrs ToxPi: 0.26
cm.mito.90min ToxPi: 0.36
cm.spacing.cv.24hrs ToxPi: 0.18
cm.spacing.cv.90min ToxPi: 0.33
cm.tc.24hrs ToxPi: 0.24
cm.tc.90min ToxPi: 0.44
endo.mtl.18hr ToxPi: 0.21
endo.tlps.18hr ToxPi: 0.38
endo.tta.18hr ToxPi: 0.11
endo.ttl.18hr ToxPi: 0.14
endo.cyto.24hr ToxPi: 0.14
endo.mito.24hr ToxPi: 0.14
endo.mitoint.24hr ToxPi: 0.00
endo.nma.24hr ToxPi: 0.71
endo.tc.24hrs ToxPi: 0.07

Oc1ccccc1-c1ccc(Cl)cc1 [2'-OH-PCB 3]
ToxPi_Score_Bioactivity: 0.4642
ToxPi_Score_ChemBiol: 0.3906

O=S(=O)(O)Oc1cc(Cl)ccc1-c1ccccc1 [2-yl PCB 3 sulfate]
huvec.mtl.18hr ToxPi: 0.50
huvec.tlps.18hr ToxPi: 0.19
huvec.tta.18hr ToxPi: 0.00
huvec.ttl.18hr ToxPi: 0.00
huvec.cyto.24hr ToxPi: 0.00
huvec.mito.24hr ToxPi: 0.00
huvec.mitoint.24hr ToxPi: 0.00
huvec.nma.24hr ToxPi: 0.00
huvec.tc.24hrs ToxPi: 0.00
cm.amp.avg.24hrs ToxPi: 0.00
cm.amp.avg.90min ToxPi: 0.00
cm.amp.cv.24hrs ToxPi: 0.00
cm.amp.cv.90min ToxPi: 0.00
cm.bpm.24hrs ToxPi: 0.00
cm.bpm.90min ToxPi: 0.55
cm.cam.24hrs ToxPi: 0.00
cm.cam.90min ToxPi: 0.00
cm.decay.rise.24hrs ToxPi: 0.00
cm.decay.rise.90min ToxPi: 0.00
cm.mii.24hrs ToxPi: 0.00
cm.mii.90min ToxPi: 0.97
cm.mito.24hrs ToxPi: 0.00
cm.mito.90min ToxPi: 0.00
cm.spacing.cv.24hrs ToxPi: 0.00
cm.spacing.cv.90min ToxPi: 0.00
cm.tc.24hrs ToxPi: 0.00
cm.tc.90min ToxPi: 0.00
endo.mtl.18hr ToxPi: 0.00
endo.tlps.18hr ToxPi: 0.00
endo.tta.18hr ToxPi: 0.00
endo.ttl.18hr ToxPi: 0.00
endo.cyto.24hr ToxPi: 0.00
endo.mito.24hr ToxPi: 0.00
endo.mitoint.24hr ToxPi: 0.00
endo.nma.24hr ToxPi: 0.00
endo.tc.24hrs ToxPi: 0.00

Oc1cccc(-c2ccc(Cl)cc2)c1 [3'-OH PCB3]
huvec.mtl.18hr ToxPi: 1.00
huvec.tlps.18hr ToxPi: 0.87
huvec.tta.18hr ToxPi: 0.66
huvec.ttl.18hr ToxPi: 0.52
huvec.cyto.24hr ToxPi: 0.47
huvec.mito.24hr ToxPi: 0.55
huvec.mitoint.24hr ToxPi: 0.17
huvec.nma.24hr ToxPi: 1.00
huvec.tc.24hrs ToxPi: 0.47
cm.amp.avg.24hrs ToxPi: 0.45
cm.amp.avg.90min ToxPi: 0.69
cm.amp.cv.24hrs ToxPi: 0.38
cm.amp.cv.90min ToxPi: 0.27
cm.bpm.24hrs ToxPi: 0.46
cm.bpm.90min ToxPi: 0.88
cm.cam.24hrs ToxPi: 0.26
cm.cam.90min ToxPi: 0.76
cm.decay.rise.24hrs ToxPi: 0.82
cm.decay.rise.90min ToxPi: 0.48
cm.mii.24hrs ToxPi: 0.39
cm.mii.90min ToxPi: 0.39
cm.mito.24hrs ToxPi: 0.42
cm.mito.90min ToxPi: 0.77
cm.spacing.cv.24hrs ToxPi: 0.80
cm.spacing.cv.90min ToxPi: 0.08
cm.tc.24hrs ToxPi: 0.43
cm.tc.90min ToxPi: 0.78
endo.mtl.18hr ToxPi: 0.59
endo.tlps.18hr ToxPi: 0.73
endo.tta.18hr ToxPi: 0.48
endo.ttl.18hr ToxPi: 0.49
endo.cyto.24hr ToxPi: 0.14
endo.mito.24hr ToxPi: 0.14
endo.mitoint.24hr ToxPi: 0.00
endo.nma.24hr ToxPi: 0.41
endo.tc.24hrs ToxPi: 0.11

Oc1cccc(-c2ccc(Cl)cc2)c1 [3'-OH-PCB 3]
ToxPi_Score_Bioactivity: 0.6594
ToxPi_Score_ChemBiol: 0.5365

O=S(=O)(O)Oc1cccc(-c2ccc(Cl)cc2)c1 [3'-PCB 3 sulfate]
ToxPi_Score_Bioactivity: 0.07444
ToxPi_Score_ChemBiol: 0.1859

O=S(=O)(O)Oc1cccc(-c2ccc(Cl)cc2)c1 [3'-yl PCB 3 sulfate]
huvec.mtl.18hr ToxPi: 0.42
huvec.tlps.18hr ToxPi: 0.00
huvec.tta.18hr ToxPi: 0.00
huvec.ttl.18hr ToxPi: 0.00
huvec.cyto.24hr ToxPi: 0.00
huvec.mito.24hr ToxPi: 0.00
huvec.mitoint.24hr ToxPi: 0.00
huvec.nma.24hr ToxPi: 0.00
huvec.tc.24hrs ToxPi: 0.00
cm.amp.avg.24hrs ToxPi: 0.00
cm.amp.avg.90min ToxPi: 0.00
cm.amp.cv.24hrs ToxPi: 0.00
cm.amp.cv.90min ToxPi: 0.00
cm.bpm.24hrs ToxPi: 0.00
cm.bpm.90min ToxPi: 0.0742
cm.cam.24hrs ToxPi: 0.00
cm.cam.90min ToxPi: 0.00
cm.decay.rise.24hrs ToxPi: 0.00
cm.decay.rise.90min ToxPi: 0.00
cm.mii.24hrs ToxPi: 0.00
cm.mii.90min ToxPi: 0.04
cm.mito.24hrs ToxPi: 0.00
cm.mito.90min ToxPi: 0.00
cm.spacing.cv.24hrs ToxPi: 0.00
cm.spacing.cv.90min ToxPi: 0.00
cm.tc.24hrs ToxPi: 0.00
cm.tc.90min ToxPi: 0.00
endo.mtl.18hr ToxPi: 0.54
endo.tlps.18hr ToxPi: 0.15
endo.tta.18hr ToxPi: 0.20
endo.ttl.18hr ToxPi: 0.22
endo.cyto.24hr ToxPi: 0.00
endo.mito.24hr ToxPi: 0.00
endo.mitoint.24hr ToxPi: 0.00
endo.nma.24hr ToxPi: 0.00
endo.tc.24hrs ToxPi: 0.00

O=S(=O)(O)Oc1cc(-c2ccccc2)ccc1Cl [3-PCB 3 sulfate]
ToxPi_Score_Bioactivity: 0.06149
ToxPi_Score_ChemBiol: 0.184

O=S(=O)(O)Oc1cc(-c2ccccc2)ccc1Cl [3-yl PCB 3 sulfate]
huvec.mtl.18hr ToxPi: 0.48
huvec.tlps.18hr ToxPi: 0.08
huvec.tta.18hr ToxPi: 0.00
huvec.ttl.18hr ToxPi: 0.10
huvec.cyto.24hr ToxPi: 0.00
huvec.mito.24hr ToxPi: 0.00
huvec.mitoint.24hr ToxPi: 0.00
huvec.nma.24hr ToxPi: 0.00
huvec.tc.24hrs ToxPi: 0.00
cm.amp.avg.24hrs ToxPi: 0.00
cm.amp.avg.90min ToxPi: 0.10
cm.amp.cv.24hrs ToxPi: 0.00
cm.amp.cv.90min ToxPi: 0.00
cm.bpm.24hrs ToxPi: 0.00
cm.bpm.90min ToxPi: 0.00
cm.cam.24hrs ToxPi: 0.00
cm.cam.90min ToxPi: 0.00
cm.decay.rise.24hrs ToxPi: 0.00
cm.decay.rise.90min ToxPi: 0.00
cm.mii.24hrs ToxPi: 0.39
cm.mii.90min ToxPi: 0.00
cm.mito.24hrs ToxPi: 0.00
cm.mito.90min ToxPi: 0.00
cm.spacing.cv.24hrs ToxPi: 0.00
cm.spacing.cv.90min ToxPi: 0.00
cm.tc.24hrs ToxPi: 0.00
cm.tc.90min ToxPi: 0.00
endo.mtl.18hr ToxPi: 0.00
endo.tlps.18hr ToxPi: 0.43
endo.tta.18hr ToxPi: 0.00
endo.ttl.18hr ToxPi: 0.00
endo.cyto.24hr ToxPi: 0.00
endo.mito.24hr ToxPi: 0.00
endo.mitoint.24hr ToxPi: 0.00
endo.nma.24hr ToxPi: 0.00
endo.tc.24hrs ToxPi: 0.00

Where a name gives a salt, the structure may show the parent alone.
